Data: the supplement of paper PMC10849652
Some of the results follow.

Amino acid sequences for entries named in this document (tags omitted). A change or cut given only in a name is not applied to a line headed by its entry.
UniProt Q13351: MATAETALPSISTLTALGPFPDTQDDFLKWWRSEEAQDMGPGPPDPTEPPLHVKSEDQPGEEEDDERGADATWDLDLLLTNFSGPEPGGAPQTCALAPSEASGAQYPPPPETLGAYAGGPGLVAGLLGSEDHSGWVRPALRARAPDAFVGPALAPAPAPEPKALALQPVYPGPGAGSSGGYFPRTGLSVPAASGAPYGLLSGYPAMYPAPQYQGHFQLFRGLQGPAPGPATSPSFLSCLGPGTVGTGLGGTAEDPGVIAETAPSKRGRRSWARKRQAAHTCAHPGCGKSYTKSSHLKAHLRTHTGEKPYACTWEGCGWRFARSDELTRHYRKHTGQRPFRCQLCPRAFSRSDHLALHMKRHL
UniProt P01042: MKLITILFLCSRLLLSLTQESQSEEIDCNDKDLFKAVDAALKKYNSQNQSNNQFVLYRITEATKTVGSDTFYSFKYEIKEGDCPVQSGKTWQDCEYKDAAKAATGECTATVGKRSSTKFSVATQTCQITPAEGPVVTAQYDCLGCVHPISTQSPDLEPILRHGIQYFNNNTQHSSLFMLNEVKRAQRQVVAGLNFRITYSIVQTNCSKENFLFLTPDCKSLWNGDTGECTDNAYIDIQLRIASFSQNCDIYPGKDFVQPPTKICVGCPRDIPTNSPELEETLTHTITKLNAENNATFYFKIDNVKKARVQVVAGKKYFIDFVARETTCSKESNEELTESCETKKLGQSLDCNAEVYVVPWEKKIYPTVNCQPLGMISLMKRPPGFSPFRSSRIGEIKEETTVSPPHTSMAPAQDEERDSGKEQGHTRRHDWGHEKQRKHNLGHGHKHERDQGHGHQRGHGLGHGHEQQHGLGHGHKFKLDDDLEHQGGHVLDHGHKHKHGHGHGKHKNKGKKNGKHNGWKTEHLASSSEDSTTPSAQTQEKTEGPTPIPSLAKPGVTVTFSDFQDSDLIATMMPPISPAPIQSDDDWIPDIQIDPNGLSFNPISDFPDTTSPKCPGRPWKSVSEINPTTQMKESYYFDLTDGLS
UniProt Q8IXV7: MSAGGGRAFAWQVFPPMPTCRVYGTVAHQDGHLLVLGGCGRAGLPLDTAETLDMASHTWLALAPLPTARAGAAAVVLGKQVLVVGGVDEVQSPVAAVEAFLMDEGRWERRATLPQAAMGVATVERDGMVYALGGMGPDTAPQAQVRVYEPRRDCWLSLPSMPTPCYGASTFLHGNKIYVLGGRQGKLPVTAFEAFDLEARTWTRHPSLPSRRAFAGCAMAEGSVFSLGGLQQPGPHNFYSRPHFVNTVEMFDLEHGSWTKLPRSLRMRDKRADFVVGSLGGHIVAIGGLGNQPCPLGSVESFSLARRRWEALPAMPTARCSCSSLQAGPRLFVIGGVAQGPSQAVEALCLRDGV
UniProt Q8NG31: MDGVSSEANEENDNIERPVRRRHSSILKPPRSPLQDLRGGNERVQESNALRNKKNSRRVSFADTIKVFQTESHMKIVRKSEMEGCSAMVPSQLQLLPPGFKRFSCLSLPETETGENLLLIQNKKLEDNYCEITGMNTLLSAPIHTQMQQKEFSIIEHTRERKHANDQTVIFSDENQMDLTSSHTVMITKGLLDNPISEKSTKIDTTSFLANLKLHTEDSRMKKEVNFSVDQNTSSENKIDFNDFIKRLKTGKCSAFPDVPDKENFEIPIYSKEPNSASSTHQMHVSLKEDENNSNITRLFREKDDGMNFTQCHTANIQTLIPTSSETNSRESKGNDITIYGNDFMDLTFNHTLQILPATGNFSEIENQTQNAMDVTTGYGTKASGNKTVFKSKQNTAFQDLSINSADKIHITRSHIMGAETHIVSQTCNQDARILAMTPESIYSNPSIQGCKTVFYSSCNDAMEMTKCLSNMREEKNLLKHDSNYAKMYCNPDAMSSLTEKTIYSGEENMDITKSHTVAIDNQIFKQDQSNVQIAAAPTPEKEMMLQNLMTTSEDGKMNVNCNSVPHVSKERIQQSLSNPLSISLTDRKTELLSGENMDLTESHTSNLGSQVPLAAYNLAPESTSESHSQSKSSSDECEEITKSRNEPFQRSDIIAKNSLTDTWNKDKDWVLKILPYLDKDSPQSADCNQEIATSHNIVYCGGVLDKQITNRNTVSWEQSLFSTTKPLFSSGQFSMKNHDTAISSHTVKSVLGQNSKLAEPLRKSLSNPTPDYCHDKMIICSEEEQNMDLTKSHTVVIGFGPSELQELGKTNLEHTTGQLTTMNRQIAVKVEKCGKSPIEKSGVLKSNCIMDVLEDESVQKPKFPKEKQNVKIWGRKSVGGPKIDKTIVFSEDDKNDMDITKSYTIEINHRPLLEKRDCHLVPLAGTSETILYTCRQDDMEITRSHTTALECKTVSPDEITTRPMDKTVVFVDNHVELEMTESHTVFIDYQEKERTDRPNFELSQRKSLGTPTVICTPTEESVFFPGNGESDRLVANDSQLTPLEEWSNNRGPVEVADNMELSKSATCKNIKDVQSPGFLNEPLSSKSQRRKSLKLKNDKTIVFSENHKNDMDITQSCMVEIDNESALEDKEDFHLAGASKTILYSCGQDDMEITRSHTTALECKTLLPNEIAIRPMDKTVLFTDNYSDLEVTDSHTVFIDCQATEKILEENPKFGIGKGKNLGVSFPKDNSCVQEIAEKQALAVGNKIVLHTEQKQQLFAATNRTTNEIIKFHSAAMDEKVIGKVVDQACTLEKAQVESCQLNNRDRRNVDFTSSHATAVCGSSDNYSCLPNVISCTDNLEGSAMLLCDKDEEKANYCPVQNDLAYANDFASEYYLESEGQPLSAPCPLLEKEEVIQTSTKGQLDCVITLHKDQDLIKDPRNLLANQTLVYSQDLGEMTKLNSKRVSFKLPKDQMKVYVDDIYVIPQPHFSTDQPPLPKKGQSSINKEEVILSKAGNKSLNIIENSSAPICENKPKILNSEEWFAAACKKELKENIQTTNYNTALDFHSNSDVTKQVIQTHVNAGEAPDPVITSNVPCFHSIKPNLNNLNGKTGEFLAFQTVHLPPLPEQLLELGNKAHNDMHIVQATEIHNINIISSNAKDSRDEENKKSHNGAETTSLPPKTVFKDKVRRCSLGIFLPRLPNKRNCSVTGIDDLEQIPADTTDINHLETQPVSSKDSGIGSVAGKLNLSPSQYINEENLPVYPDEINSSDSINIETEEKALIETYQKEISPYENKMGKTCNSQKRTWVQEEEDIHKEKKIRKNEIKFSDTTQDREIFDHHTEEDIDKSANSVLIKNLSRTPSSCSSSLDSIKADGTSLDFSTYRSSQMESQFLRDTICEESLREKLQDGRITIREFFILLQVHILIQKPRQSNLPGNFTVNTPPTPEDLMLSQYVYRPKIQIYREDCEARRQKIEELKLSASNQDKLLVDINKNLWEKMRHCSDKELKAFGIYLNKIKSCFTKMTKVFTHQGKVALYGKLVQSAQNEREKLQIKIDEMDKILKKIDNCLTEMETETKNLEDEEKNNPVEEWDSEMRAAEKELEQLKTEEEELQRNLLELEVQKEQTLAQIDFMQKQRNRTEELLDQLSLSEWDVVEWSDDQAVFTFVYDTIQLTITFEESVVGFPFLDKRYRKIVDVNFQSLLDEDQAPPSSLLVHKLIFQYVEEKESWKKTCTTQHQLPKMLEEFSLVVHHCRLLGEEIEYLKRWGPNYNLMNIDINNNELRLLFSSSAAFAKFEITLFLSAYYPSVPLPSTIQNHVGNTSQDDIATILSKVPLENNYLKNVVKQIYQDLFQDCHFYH
UniProt Q969F8, whole entry, looked up: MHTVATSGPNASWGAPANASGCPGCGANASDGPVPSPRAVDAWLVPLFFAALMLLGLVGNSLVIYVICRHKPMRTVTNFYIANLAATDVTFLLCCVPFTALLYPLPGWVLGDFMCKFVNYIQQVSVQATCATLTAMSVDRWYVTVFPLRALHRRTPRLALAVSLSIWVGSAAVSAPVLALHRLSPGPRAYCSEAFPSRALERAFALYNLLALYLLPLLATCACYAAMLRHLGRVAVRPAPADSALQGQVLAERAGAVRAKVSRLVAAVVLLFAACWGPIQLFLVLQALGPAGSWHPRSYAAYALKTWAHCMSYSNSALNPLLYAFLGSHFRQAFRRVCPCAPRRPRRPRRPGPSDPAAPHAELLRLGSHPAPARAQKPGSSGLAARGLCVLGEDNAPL
UniProt P52333: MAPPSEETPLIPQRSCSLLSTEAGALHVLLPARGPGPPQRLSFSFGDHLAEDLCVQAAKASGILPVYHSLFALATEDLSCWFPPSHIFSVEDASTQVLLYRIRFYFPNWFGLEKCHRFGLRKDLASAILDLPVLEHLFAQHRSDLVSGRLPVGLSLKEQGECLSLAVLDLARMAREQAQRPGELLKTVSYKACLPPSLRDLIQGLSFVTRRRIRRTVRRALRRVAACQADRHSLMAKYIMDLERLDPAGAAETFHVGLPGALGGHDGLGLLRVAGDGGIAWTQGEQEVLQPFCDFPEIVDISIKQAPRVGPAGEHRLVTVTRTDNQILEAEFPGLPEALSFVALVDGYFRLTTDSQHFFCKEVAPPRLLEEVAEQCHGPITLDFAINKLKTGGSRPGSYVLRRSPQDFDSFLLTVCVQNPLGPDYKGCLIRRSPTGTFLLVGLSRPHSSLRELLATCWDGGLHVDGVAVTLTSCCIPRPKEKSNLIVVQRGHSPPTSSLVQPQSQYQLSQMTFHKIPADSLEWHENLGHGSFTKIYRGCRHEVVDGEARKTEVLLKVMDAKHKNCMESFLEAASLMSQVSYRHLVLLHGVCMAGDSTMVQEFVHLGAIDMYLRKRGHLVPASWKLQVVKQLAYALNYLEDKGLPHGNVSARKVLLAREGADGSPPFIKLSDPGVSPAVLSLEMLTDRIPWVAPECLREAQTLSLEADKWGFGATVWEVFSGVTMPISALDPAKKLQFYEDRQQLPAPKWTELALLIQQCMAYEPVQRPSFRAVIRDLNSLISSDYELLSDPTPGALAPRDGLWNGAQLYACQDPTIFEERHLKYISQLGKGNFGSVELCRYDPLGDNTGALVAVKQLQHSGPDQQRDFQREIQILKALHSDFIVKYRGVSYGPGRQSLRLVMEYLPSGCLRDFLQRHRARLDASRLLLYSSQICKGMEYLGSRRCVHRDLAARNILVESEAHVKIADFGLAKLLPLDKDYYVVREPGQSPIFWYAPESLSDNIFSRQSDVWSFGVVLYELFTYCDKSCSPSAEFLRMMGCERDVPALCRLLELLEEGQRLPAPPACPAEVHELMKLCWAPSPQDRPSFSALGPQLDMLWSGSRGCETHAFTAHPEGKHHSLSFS
UniProt Q9NVX7: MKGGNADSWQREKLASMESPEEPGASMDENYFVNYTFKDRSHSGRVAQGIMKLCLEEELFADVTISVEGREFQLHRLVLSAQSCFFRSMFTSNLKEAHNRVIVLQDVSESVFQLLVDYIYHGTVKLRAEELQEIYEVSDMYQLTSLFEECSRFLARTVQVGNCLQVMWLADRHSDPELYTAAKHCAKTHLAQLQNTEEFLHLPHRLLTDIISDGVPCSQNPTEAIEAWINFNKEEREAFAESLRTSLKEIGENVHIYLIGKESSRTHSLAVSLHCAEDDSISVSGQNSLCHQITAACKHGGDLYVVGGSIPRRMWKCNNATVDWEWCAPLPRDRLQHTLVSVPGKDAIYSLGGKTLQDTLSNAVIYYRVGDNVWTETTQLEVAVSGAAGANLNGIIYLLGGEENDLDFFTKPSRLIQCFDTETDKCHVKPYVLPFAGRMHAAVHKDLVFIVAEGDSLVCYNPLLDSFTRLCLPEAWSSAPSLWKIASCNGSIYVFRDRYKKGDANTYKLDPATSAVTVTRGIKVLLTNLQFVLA
UniProt Q8NFY9: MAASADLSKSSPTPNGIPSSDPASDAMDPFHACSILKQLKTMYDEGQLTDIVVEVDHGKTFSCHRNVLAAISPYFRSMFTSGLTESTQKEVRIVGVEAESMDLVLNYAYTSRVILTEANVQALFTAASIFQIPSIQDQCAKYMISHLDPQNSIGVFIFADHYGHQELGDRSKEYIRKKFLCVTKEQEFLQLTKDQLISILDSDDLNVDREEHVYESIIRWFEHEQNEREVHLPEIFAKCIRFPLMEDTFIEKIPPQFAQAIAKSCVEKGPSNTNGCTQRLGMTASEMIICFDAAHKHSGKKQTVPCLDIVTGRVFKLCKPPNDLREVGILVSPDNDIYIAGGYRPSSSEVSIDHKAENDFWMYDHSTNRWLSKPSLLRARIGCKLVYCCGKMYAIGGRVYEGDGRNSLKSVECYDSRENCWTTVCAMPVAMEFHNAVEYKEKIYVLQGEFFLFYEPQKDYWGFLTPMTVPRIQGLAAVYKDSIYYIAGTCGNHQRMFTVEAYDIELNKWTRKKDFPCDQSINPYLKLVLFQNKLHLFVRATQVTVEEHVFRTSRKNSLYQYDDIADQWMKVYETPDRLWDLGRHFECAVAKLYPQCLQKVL

Columns and labels:
Assay in all cases: log2 fold change, soluble protein after heating vs DMSO (PISA); higher = thermal stabilisation; K562 cells, 10 uM, 30 min; active = over 0.2 and 3.5 SD of the protein, either way, in both replicates (recomputed)
[1] = compound: CC1=C(C=C(C=C1)NC(=O)C2=CC(=CC=C2)C(C)(C)C#N)NC3=CC4=C(C=C3)N=CN(C4=O)C
Method in brief: (§1)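 Soluble protein was quantified by TMTpro 16plex LC-MS/MS after channel sums were equalised. It was obtained as the supernatant after 21,000xg for 90 min from pooled aliquots of K562 cells (2×10^6 cells/mL, 10 μM compound, 30 min) heated for 3 min across 48°C-58°C and extracted in PBS with 0.5% NP-40 at 4°C. Thermal stability values are relative to control samples and come from duplicates. They are given as log2 fold changes.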

[2] = compound: CC1=C(C=C(C=C1)NC(=O)C2=CC(=CC=C2)N(C)C)NC(=O)C3=CC=C(C=C3)O
Method in brief: as §1

[3] = compound: CC1=CC=C(C=C1)SC2=C3C=C(SC3=CN=C2)C(=O)N
Method in brief: as §1

[4] = compound: CC1=NC(=CC=C1)C2=C(N=C(N2)C(C)(C)C)C3=CC4=NC=CN=C4C=C3
Method in brief: as §1

[5] = compound: CCCS(=O)(=O)Nc1ccc(F)c(C(=O)c2c[nH]c3ncc(-c4ccc(Cl)cc4)cc23)c1F [vemurafenib]
Method in brief: as §1

[6] = compound: CCCS(=O)(=O)Nc1ccc(F)c(C(=O)c2c[nH]c3ncc(Cl)cc23)c1F
Method in brief: as §1

[7] = compound: CCCc1cc(C)[nH]c(=O)c1CNC(=O)c1cc(-c2ccnc(N3CCN(C)CC3)c2)cc2c1cnn2C(C)C
Method in brief: as §1

[8] = compound: CCN(CCCOc1ccc2c(Nc3cc(CC(=O)Nc4cccc(F)c4)[nH]n3)ncnc2c1)CCOP(=O)(O)O [barasertib]
Method in brief: as §1

[9] = compound: CC[C@@H]1C(=O)N(C)c2cnc(Nc3ccc(C(=O)NC4CCN(C)CC4)cc3OC)nc2N1C1CCCC1
Method in brief: as §1

[10] = compound: CC[C@@H]1C(=O)N(C)c2cnc(Nc3ccc(C(=O)N[C@H]4CC[C@H](N5CCN(CC6CC6)CC5)CC4)cc3OC)nc2N1C(C)C [volasertib]
Method in brief: as §1

[11] = compound: CC[C@H](C)N1C=C(C2=C(C=C(C=C21)C3=CN=C(C=C3)N4CCNCC4)C(=O)NCC5=C(C=C(NC5=O)C)C)C
Method in brief: as §1

[12] = compound: CCn1cc(-c2ccnc3[nH]c(-c4cccc(CN(C)C)c4)cc23)c(-c2ccc(NC(=O)N(C)C)cc2)n1
Method in brief: as §1

[13] = compound: CN(C)CC(=O)Nc1ccc2[nH]c(=O)c3ccccc3c2c1
Method in brief: as §1

[14] = compound: CN(CCOC1=CC=C(C=C1)C[C@H]2C(=O)NC(=O)S2)C3=CC=CC=N3 (racemic) [rosiglitazone]
Method in brief: as §1

[15] = compound: CN1C2=C(C3=C1C(=O)N(N=C3)CC4=CC(=CC=C4)N)SC(=C2)S(=O)C
Method in brief: as §1

[16] = compound: CN1CCC(CNc2ccc3ncc(-c4cccc(OC(F)(F)F)c4)n3n2)CC1
Method in brief: as §1

[17] = compound: CCN(CC)Cc1ccc2cc(COC(=O)Nc3ccc(C(=O)NO)cc3)ccc2c1 [givinostat]
Method in brief: as §1

[18] = compound: CCn1c(C(=O)N(C2CC2)C2CC2)cc2c3c(ncn3C)c(Nc3cc(C)n(C)n3)nc21
Method in brief: as §1

[19] = compound: CCCCN(Cc1ccc(C(=O)NO)cc1)C(=O)Nc1ccccc1 [Nexturastat A]
Method in brief: as §1

[20] = compound: CC[C@H](C)[C@@H](C(=O)N[C@@H]([C@@H](C)O)C(=O)N[C@@H](CC(C)C)C(=O)[C@]1(CO1)C)NC(=O)[C@H]([C@@H](C)CC)N(C)C(=O)C [epoxomicin]
Method in brief: as §1

Target | log2 fold change [1] | log2 fold change [2] | log2 fold change [3] | log2 fold change [4] | log2 fold change [5] | log2 fold change [6] | log2 fold change [7] | log2 fold change [8] | log2 fold change [9] | log2 fold change [10] | log2 fold change [11] | log2 fold change [12] | log2 fold change [13] | log2 fold change [14] | log2 fold change [15] | log2 fold change [16] | log2 fold change [17] | log2 fold change [18] | log2 fold change [19] | log2 fold change [20]
KLF1 (UniProt Q13351) | inactive: -0.169 | inactive: 0.015 | inactive: -0.121 | inactive: -0.048 | inactive: -0.079 | inactive: -0.053 | inactive: -0.014 | inactive: -0.235 | inactive: -0.006 | inactive: 0.053 | inactive: -0.166 | inactive: 0.175 | inactive: 0.013 | inactive: -0.215 | inactive: -0.041 | inactive: 0.212 |  |  |  | 
KNG1 (UniProt P01042) | inactive: 0 | inactive: 0.328 | inactive: 0.019 | inactive: 0.063 | inactive: 0.059 | inactive: -0.071 | inactive: -0.222 | inactive: 0.036 | inactive: -0.039 | inactive: 0.125 | inactive: -0.097 | inactive: 0.059 | inactive: -0.153 | inactive: 0.043 | inactive: 0.183 | inactive: 0.239 | inactive: -0.079 | inactive: 0.033 |  | 
KLHDC8B (UniProt Q8IXV7) | inactive: -0.007 | inactive: 0.068 |  | inactive: -0.063 | inactive: -0.012 |  | inactive: 0.114 | inactive: 0.111 |  |  |  | inactive: -0.21 | inactive: -0.023 | inactive: 0.045 | inactive: -0.138 | inactive: -0.087 | inactive: -0.08 | inactive: 0.093 |  | 
KNL1 (UniProt Q8NG31) | inactive: -0.088 | inactive: 0.029 |  | inactive: -0.066 |  |  | inactive: 0.105 |  | inactive: 0.012 |  |  | inactive: -0.17 |  |  | inactive: 0.043 | inactive: -0.145 | inactive: 0.346 | inactive: -0.181 | inactive: -0.186 | inactive: 0.173
KISS1R (UniProt Q969F8) | inactive: -0.09 | inactive: 0.07 | inactive: -0.377 | inactive: 0.038 |  | inactive: -0.061 | inactive: 0.092 | inactive: -0.082 |  | inactive: 0.171 |  | inactive: -0.11 |  | inactive: 0.026 | inactive: 0.119 | inactive: 0.18 | inactive: 0.022 | inactive: -0.088 | inactive: -0.028 | inactive: 0.007
KIF26A (UniProt Q9ULI4) | inactive: 0.118 | inactive: 0.083 | inactive: -0.074 | inactive: -0.069 |  | inactive: -0.025 | inactive: 0.021 | inactive: -0.004 | inactive: 0.101 | inactive: 0.074 | inactive: 0.001 |  |  | inactive: -0.036 |  |  | inactive: -0.006 | inactive: 0.064 |  | 
JAK3 (UniProt P52333) | inactive: -0.002 | inactive: -0.056 | inactive: 0.066 | inactive: 0.099 | inactive: -0.032 | inactive: -0.029 | inactive: 0.016 | inactive: 0.016 |  | inactive: -0.075 | inactive: 0.09 | inactive: 0.128 | inactive: -0.042 |  | inactive: -0.01 | inactive: 0.012 | inactive: -0.16 |  | active: -0.478 | inactive: -0.033
KBTBD4 isoform 2 (UniProt Q9NVX7) | inactive: 0.04 | inactive: -0.075 |  | inactive: 0.067 | inactive: 0.022 |  | inactive: -0.011 | inactive: 0.065 | inactive: 0.155 |  | inactive: -0.013 |  | inactive: -0.093 | inactive: 0.057 | inactive: -0.013 |  | inactive: -0.013 | inactive: -0.067 | inactive: 0.021 | inactive: -0.001
KIAA1324L (UniProt A8MWY0) | inactive: -0.065 | inactive: -0.022 | inactive: 0.028 | inactive: 0.002 | inactive: 0.002 | inactive: -0.048 | inactive: 0.05 | inactive: 0.002 | active: -0.312 | active: -0.293 | inactive: -0.012 | inactive: -0.019 | inactive: 0.091 |  | inactive: -0.112 | inactive: -0.14 | inactive: 0.032 |  | inactive: 0.045 | inactive: 0.015
KBTBD8 (UniProt Q8NFY9) | inactive: 0.001 | inactive: -0.052 | inactive: -0.226 | inactive: 0.133 | inactive: 0.004 | inactive: 0.028 | inactive: 0.057 | inactive: 0.107 | inactive: 0.071 | inactive: 0.241 | inactive: 0.065 | inactive: 0.167 | inactive: -0.033 | inactive: 0.106 | inactive: 0.018 | inactive: -0.095 |  |  | inactive: 0.067 | inactive: 0.038
